The whole screen tested about 310,000 compounds, of which about 17,000 (5.5%) were called active. This list was built around the results that the source calls inconclusive (neither active nor inactive); the mix of calls is not that of the screen. The call rests on the fitted dose curve; in most records, active means well fitted inhibition curve with a large enough effect; inconclusive means small, poorly fitted or top-dose-only effect, or effect the other way; inactive means no such curve, though single readings can be large or run the other way. A potency beside an inconclusive call is a rough fit, not a confirmed value.
These compounds were tested against Nuclear receptor ROR-gamma (Mus musculus) (UniProt P51450) (assay: qHTS for inhibitors of ROR gamma transcriptional activity). Conditions: Drosophila S2 Gal4-RORgamma UAS-luciferase reporter, 20 h; activity change, negative = inhibition: at 53.6 µM (top of the series).
Method in brief: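 Stable Schneider cell line, Gal4 DNA-binding domain fused to ROR gamma, UAS-luciferase. Cmpd 1 hr RT → CuSO4 700 uM final → 20 hr RT → luciferase reagent 10 min → luminescence.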
Further: nearly all actives have a fitted effect of over 60% in size.
On the % scale 0 is the no-effect control and ±100 the full control effect; potency means the concentration at half of the fitted maximal effect.

Chains of the proteins cited; added tags and fusions are not shown. Lines headed by an entry give the natural chain unless they say otherwise; changes in a name come on top.
UniProt P51450: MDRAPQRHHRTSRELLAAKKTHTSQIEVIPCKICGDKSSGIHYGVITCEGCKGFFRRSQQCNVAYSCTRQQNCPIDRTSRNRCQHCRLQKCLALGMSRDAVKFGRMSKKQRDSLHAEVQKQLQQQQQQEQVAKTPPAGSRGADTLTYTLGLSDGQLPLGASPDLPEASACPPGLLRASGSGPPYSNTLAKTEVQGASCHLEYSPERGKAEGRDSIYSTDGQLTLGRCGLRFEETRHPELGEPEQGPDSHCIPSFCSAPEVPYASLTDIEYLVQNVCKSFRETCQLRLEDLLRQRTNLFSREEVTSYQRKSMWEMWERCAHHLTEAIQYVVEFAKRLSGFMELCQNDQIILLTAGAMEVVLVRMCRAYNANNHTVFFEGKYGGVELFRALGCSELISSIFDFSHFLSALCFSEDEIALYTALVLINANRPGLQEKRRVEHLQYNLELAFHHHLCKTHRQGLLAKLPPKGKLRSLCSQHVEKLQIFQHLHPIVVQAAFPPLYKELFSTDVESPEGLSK

Activity change, negative = inhibition, inactive:
Cc1cc(C)c(NC(=O)c2sc3nc(C)[nH]c(=O)c3c2C)c(C)c1 7.25%, CCc1cccc(NC(=O)CCS(=O)(=O)c2ccc(Br)cc2)c1 -12.6%, COc1ccc(CCNC(=O)Cn2c(=O)n(Cc3ccco3)c(=O)c3ccc(Cl)cc32)cc1OC -24.3%, NC(=O)NCC12CC3CC(CC(C3)C1)C2 -15.1%, O=C(O)c1cc([N+](=O)[O-])c(Nc2cccc3ccccc23)c([N+](=O)[O-])c1 -7.65%, O=S(=O)(NCCSc1ccccc1)c1ccc(F)cc1 -25.4%, Cc1ccc(S(=O)(=O)CCc2ccncc2)cc1 34.8%, CCC(C(=O)OCC(=O)Nc1ccc(OC)cc1OC)c1ccccc1 (configuration not stated) 17%, O=C(NCCCNc1ccc(C(F)(F)F)cc1[N+](=O)[O-])c1ccc(Cl)cc1 15%, COc1ccc([N+](=O)[O-])cc1NC(=O)C(C)N(C)Cc1cccc(OC)c1OC (configuration not stated) 25.7%, CCc1ccc(CN2CCCC(C(=O)Nc3ccccc3-c3ccc(OC)cc3)C2)o1 (configuration not stated) 14.5%, CCOc1ccc(S(=O)(=O)N(CC(=O)NCc2cccnc2)c2ccc(F)cc2)cc1 -4.89%, C#CCn1c(=NC(=O)c2sc3ccccc3c2Cl)sc2cc(S(N)(=O)=O)ccc21 -4.3%

Potency, inconclusive:
Cc1ccc(CSC2=NCCN2C(=O)C2CC2)cc1 15.8 µM [activator, single point], c1ccc(Sc2ncnc3c2oc2ccccc23)nc1 10 µM [inhibitor, single point], Cc1cc(C(=O)CN2C(=O)C(=O)N(Cc3ccccc3)C2=O)c(C)n1-c1ccccc1F 12.6 µM [activator, single point], COc1ccc(CNS(=O)(=O)NCc2ccc(OC)c(OC)c2)cc1 15.8 µM [activator, single point], CCCSc1nnc(NC(=O)c2sc3nc(-c4cccs4)ccc3c2N)s1 15.8 µM [inhibitor, single point], CCCCSc1nnc(-c2ccc(OC)cc2)n1C 15.8 µM [activator, single point], N#Cc1ccccc1NC(=O)CNc1ccc(Cl)c(C(F)(F)F)c1 17.8 µM [inhibitor, single point], O=C1Oc2ccccc2C(=O)/C1=C/c1ccccc1O 14.1 µM [inhibitor, partial curve, poor fit], Cc1ccc(NC(=S)c2ccncc2)c(C)c1 12.6 µM [inhibitor, single point], COCCCn1c(SCC(=O)Nc2ccc(C(C)=O)cc2)nc2ccccc2c1=O 35.5 µM [inhibitor, single point], O=[N+]([O-])c1c(C(Cl)Cl)nn(-c2ccc(Cl)cc2)c1N1CCCCC1 12.6 µM [inhibitor, partial curve], Cn1c(=O)cc(OCCCC(=O)NC2CCCC2)c2ccccc21 7.08 µM [inhibitor, partial curve], COc1ccc(-c2nnc(SC(C(=O)c3c[nH]c4ccccc34)c3ccccc3)n2N)cc1OC (configuration not stated) 15.8 µM [activator, single point], O=C(CCN1C(=O)/C(=C/c2ccc(F)cc2)SC1=S)Nc1cc([N+](=O)[O-])ccc1O 35.5 µM [inhibitor, single point], Cc1c(Cl)ccc2c(C(=O)NC(C)c3ccncc3)cc(-c3ccncc3)nc12 (configuration not stated) 35.5 µM [inhibitor, single point], Nc1ccc2nc(-c3cccs3)[nH]c2c1 5.62 µM [activator, single point], COc1ccc(NC(=S)N(CCC(C)C)C(C)c2ccncc2)cc1 (configuration not stated) 35.5 µM [inhibitor, single point], Cc1ccc(C2Nc3ccccc3-c3nc4ccccc4n32)o1 (configuration not stated) 1 µM [activator, full curve, poor fit], CC1(C)CC(NS(=O)(=O)c2ccc(F)cc2)CC(C)(C)N1 10 µM [inhibitor, partial curve], O=C(NCc1ccc2c(c1)CCO2)Nc1cccc(C(F)(F)F)c1 35.5 µM [activator, single point], CCOc1ccc(NC(=O)CC2SC(=O)N(c3ccccc3)C2=O)cc1 (configuration not stated) 31.6 µM [inhibitor, single point], Cc1cc(C(=O)C(C)Sc2cccc[n+]2[O-])c(C)n1-c1ccc(Cl)cc1 (configuration not stated) 35.5 µM [inhibitor, single point], Cc1cc(C)cc(N2C(=O)CC(Sc3ncn[nH]3)C2=O)c1 (configuration not stated) 35.5 µM [inhibitor, single point], Cc1sc(NC(=O)c2cc(-c3ccccc3)nc3ccccc23)c(C(N)=O)c1C 11.2 µM [activator, partial curve, poor fit], C=CCC1(C#N)C(SC)=NC2=C(C(=O)CC(C)(C)C2)C1c1ccc(Br)cc1 (configuration not stated) 12.6 µM [activator, partial curve], CCC(C(=O)NCc1ccc(OC)cc1)n1nc(C)n2c(cc3occc32)c1=O (configuration not stated) 5.62 µM [inhibitor, single point]

Potency, active:
Cc1ccc(-c2cnc3cc(C)nn3c2)cc1 11.2 µM, CCn1c(COc2ccc(Cl)cc2)nnc1SCc1nc2ccccc2[nH]1 11.2 µM, CSc1ccccc1NC(=O)c1ccccn1 0.447 µM, O=C(N/N=C\c1cc(Br)ccc1O)c1ccc(S(=O)(=O)N2CCCCC2)cc1 3.55 µM, Cc1cccc2cc(C#N)c(NCCNC(=S)NCCCN3CCOCC3)nc12 3.98 µM, CCc1ccccc1NC(=S)NCC1CCN(c2ccc(OC)cc2)C1 (configuration not stated) 2.51 µM, COc1ccccc1Cn1c(=S)[nH]c2ccc(Br)cc2c1=O 2 µM, CCN(CC(=O)Nc1cccc(S(N)(=O)=O)c1)Cc1nc2ccccc2c(=O)[nH]1 2.82 µM

From PubChem BioAssay AID2551 (National Center for Advancing Translational Sciences (NCATS), 2010)
